The record followed here is publication PMC12782253.

Chains of the proteins cited; added tags and fusions are not shown.
UniProt O95235: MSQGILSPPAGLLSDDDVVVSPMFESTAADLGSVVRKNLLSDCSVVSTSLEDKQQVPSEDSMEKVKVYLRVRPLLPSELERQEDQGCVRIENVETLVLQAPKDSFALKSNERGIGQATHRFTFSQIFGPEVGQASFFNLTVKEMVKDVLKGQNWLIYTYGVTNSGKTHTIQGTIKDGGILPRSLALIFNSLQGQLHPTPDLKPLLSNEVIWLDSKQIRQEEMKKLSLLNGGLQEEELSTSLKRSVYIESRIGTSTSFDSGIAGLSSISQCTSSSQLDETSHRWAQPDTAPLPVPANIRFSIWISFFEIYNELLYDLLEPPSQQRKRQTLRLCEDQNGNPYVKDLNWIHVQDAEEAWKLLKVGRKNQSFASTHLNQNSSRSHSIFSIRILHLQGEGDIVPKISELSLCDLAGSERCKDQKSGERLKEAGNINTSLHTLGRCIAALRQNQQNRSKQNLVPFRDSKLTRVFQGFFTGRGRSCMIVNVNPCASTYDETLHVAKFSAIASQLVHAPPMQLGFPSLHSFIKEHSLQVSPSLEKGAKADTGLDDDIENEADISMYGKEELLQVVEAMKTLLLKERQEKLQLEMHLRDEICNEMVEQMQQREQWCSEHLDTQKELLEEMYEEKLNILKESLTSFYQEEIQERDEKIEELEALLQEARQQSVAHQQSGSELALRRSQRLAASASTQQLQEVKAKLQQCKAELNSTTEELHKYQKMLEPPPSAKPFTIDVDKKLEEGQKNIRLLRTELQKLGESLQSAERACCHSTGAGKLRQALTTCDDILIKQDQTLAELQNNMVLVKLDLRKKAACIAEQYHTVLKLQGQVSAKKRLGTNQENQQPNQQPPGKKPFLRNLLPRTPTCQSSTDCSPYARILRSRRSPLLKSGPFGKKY
UniProt O43683: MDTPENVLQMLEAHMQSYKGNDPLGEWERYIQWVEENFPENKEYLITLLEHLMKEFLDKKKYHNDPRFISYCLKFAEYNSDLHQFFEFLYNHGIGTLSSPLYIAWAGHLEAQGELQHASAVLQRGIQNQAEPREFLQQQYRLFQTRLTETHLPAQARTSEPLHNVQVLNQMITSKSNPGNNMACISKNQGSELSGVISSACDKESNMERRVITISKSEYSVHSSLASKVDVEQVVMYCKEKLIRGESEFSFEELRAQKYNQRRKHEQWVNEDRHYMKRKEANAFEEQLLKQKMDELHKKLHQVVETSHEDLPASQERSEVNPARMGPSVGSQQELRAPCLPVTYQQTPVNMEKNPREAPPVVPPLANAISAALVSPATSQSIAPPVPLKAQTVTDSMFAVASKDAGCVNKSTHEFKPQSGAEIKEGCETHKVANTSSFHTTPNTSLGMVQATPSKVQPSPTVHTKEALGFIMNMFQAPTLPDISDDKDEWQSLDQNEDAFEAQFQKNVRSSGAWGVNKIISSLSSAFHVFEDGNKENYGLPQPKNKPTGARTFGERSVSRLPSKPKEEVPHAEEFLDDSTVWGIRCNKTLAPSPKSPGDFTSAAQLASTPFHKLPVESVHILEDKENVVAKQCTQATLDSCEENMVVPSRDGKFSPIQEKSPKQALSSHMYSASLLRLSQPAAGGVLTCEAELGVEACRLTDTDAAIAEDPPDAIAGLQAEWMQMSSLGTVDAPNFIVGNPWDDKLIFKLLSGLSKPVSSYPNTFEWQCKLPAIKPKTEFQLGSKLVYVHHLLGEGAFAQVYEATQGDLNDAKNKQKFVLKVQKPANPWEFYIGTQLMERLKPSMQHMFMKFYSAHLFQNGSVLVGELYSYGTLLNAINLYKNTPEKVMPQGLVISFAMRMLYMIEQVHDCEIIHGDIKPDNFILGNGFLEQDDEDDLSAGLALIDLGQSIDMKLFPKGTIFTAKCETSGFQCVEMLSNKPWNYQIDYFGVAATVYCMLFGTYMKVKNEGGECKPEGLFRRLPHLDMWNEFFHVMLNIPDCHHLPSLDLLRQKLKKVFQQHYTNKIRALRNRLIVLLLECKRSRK

In this assay the target is Kinesin family member 20A (human (endogenous in CaSki and C-33A)) (UniProt O95235). Briefly: co-IP; CaSki and C-33A cell lysates (500 ug, RIPA lysis buffer: 50 mM Tris pH 7.4, 150 mM NaCl, 1% Triton X-100, 1% sodium deoxycholate, 0.1% SDS) incubated overnight at 4°C with 2 ug IgG, KIF20A or BUB1 antibody; Protein A-Sepharose CL-4B beads; Western blot. On the technique in general: Immunoblotting shows a protein as a band on a membrane.

Results are given in words; binding and its absence hold for the method and conditions named. In cells and extracts the contact can be indirect. Some entries that bind do so weakly or less than the wild type.

For the substance “Budding uninhibited by benzimidazole 1 (from UniProt O43683 1-1085)”, the binding entry was “binds”.
